Experimental findings from paper PMC2918522, “Characterization of the first beta-class carbonic anhydrase from an arthropod (Drosophila melanogaster) and phylogenetic analysis of beta-class carbonic anhydrases in invertebrates” (BMC Biochemistry, 2010) are described below.

In the test the target is T1, DmBCA (Drosophila melanogaster, UniProt Q9VHJ5).
T1 construct: gene CAHbeta; C-terminal thrombin site and His6; baculovirus/Sf9, purified from culture supernatant; thrombin treatment to remove tag; 28/27 kDa before/after thrombin; dimer
T1 sequence (Q9VHJ5 1-255): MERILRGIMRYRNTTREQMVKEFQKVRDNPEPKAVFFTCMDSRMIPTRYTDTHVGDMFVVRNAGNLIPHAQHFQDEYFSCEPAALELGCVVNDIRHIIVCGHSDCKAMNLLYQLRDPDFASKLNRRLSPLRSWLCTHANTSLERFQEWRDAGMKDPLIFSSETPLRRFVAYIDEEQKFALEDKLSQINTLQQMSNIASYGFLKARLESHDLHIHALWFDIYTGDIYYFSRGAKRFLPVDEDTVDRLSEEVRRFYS
The experiment in a line: stopped-flow CO2 hydration assay. The following applies: read-out: KI (nM)^c. The format is biochemical. From the text:
stopped-flow CO2 hydration assay on DmBCA

Consider `CC(=O)Nc1nnc(S(N)(=O)=O)s1` [acetazolamide, 5-acetamido-1,3,4-thiadiazole-2-sulfonamide], for which the Ki is 49 nM.

A word on the Ki: it is the equilibrium dissociation constant of an inhibitor or competing ligand from its target.
